Test [1] deals with HypBA2 CΔ1049 (residues 33–894), native (Bifidobacterium longum JCM 1217) (UniProt E8MGH9). The test can be described thus: SEC; gel filtration on HiLoad 16/60 Superdex 200 pg in 20 mM Tris-HCl (pH 8.0), 250 mM NaCl, 2 mM CaCl2, 1 mL/min; compared with molecular mass markers; both purified. Background: Size exclusion chromatography separates by hydrodynamic size, large species first.

Test [2] deals with HypBA2 CΔ789 (residues 33–1154), SeMet-labeled (Bifidobacterium longum JCM 1217) (UniProt E8MGH9). The test is described as above.

Results are given in words; binding and its absence hold for the method and conditions named.

The values below come from PMC7263609.

B1: HypBA2 CΔ1049 (residues 33–894), native (domain or fragment, UniProt E8MGH9 33-894)
chain: ADAPVIKNADVAYPSFKGSDDPMKTAANNTTYNPAVSYLQETFDNDVKNLAGIDTDHDFWIDKILTRTGAQPTGKGTNDKGAYSYEGSDGNNYLFTRGRAAYMYTHTPNQLGFVGDTAYWDQTSRSGFTVTVNADGSNQTLNEDASQRKQTPSYFTSLFQTGGKSLKIKEVKYITYNNVMVANLTVESTQDRDVTLTTASPFAAEGADGATELTGRVNVKNNLTTIYPRFSANNQDGSNWIVSGGKLTSTLSLKANEPQTVKIQLGLIANELPDSTKEYEARYTGDLKDAAASYKDSVTTYNKWWVDNAPYVDTPEDNIDKTVVYRWWLSRFNMLDANMPGNTFQYPTSIEGVLGYNNQIVLTSGMFMMDTKWFRNPEYSYGTWLSAGDTAKKSKAGYYYYHDNPGDPANWNHSYTQYITRAGWDSYKVHGGPSTVAEELADQGAEDVQGLLASKSEPDNNDNQNNNDNSLIDWSWWSMTGNDADAVSFSEPGRSGQRMDRADGSANMWANANAAAQAYKAAGDTANAEKMQAIADKIQKEVTTELWDKSDNLLKHKWLNDGAFAKYKEINNYYPYSEGLMPTGNEDYNKALRLFEDSNEFPIFPFFTANQADKAALNFPGSNNFSIINAQPLLQVYSAGIRNYDAAKNGYITNEQFKKLLYWVAFAHYQGGDNNYPDQNEFWNEDNNNVGDVNGDGVINNLDKNLDAAQNGGKITYRSWIHHTQLGTTNWTMVEDVAGMVPREDNKIELNPIEIPGWNYFTVNNLRYHDQDVSIVWDKDGSHYGGPAGYSLYVGGKLAFTSDKLAHLIYDPAAGTVEVKDDSSAQVTVGAEAVKNVKAANQVTFNADQRVTDLFAKSGTNV
With B1, the binding result in test [1] was “no binding”.

B2: HypBA2 CΔ789 (residues 33–1154), SeMet-labeled (domain or fragment, UniProt E8MGH9 33-1154)
chain: ADAPVIKNADVAYPSFKGSDDPMKTAANNTTYNPAVSYLQETFDNDVKNLAGIDTDHDFWIDKILTRTGAQPTGKGTNDKGAYSYEGSDGNNYLFTRGRAAYMYTHTPNQLGFVGDTAYWDQTSRSGFTVTVNADGSNQTLNEDASQRKQTPSYFTSLFQTGGKSLKIKEVKYITYNNVMVANLTVESTQDRDVTLTTASPFAAEGADGATELTGRVNVKNNLTTIYPRFSANNQDGSNWIVSGGKLTSTLSLKANEPQTVKIQLGLIANELPDSTKEYEARYTGDLKDAAASYKDSVTTYNKWWVDNAPYVDTPEDNIDKTVVYRWWLSRFNMLDANMPGNTFQYPTSIEGVLGYNNQIVLTSGMFMMDTKWFRNPEYSYGTWLSAGDTAKKSKAGYYYYHDNPGDPANWNHSYTQYITRAGWDSYKVHGGPSTVAEELADQGAEDVQGLLASKSEPDNNDNQNNNDNSLIDWSWWSMTGNDADAVSFSEPGRSGQRMDRADGSANMWANANAAAQAYKAAGDTANAEKMQAIADKIQKEVTTELWDKSDNLLKHKWLNDGAFAKYKEINNYYPYSEGLMPTGNEDYNKALRLFEDSNEFPIFPFFTANQADKAALNFPGSNNFSIINAQPLLQVYSAGIRNYDAAKNGYITNEQFKKLLYWVAFAHYQGGDNNYPDQNEFWNEDNNNVGDVNGDGVINNLDKNLDAAQNGGKITYRSWIHHTQLGTTNWTMVEDVAGMVPREDNKIELNPIEIPGWNYFTVNNLRYHDQDVSIVWDKDGSHYGGPAGYSLYVGGKLAFTSDKLAHLIYDPAAGTVEVKDDSSAQVTVGAEAVKNVKAANQVTFNADQRVTDLFAKSGTNVDSASKSTTNVAKDADVTGTTYAEKDTNYPAKNAVDGKTVMESFWGTKGSENKTDTLNIKFKDGKQKIDDIRLYFYQSSSSQTISGYAEPANYKLEYQKDDGTWAPIADQVRTPNYAGANYNRIQFTPVETTTIRVTFTPQAGMAVGVKEIEAYNTGIKADGTSENQTPQVDAYVSSSTSSGAKLVGTVKDDGLPAEGDVTTTWSQVSGPEGGTAKFVDASAASTTVTFNKEGDYVLKLTASDGEKEGSKEITVHGIPSDG
modifications: selenomethionine (SeMet-labeled)
For the molecule B2, the binding result in test [2] was “no binding”.
